The experiment addresses SFB-GOLPH3 (Golgi phosphoprotein 3) (human) (UniProt Q9H4A6). Nature of the experiment: affinity purification with mass spectrometry; IP-MASS in 293T cells transfected with SFB-vector or SFB-GOLPH3; SFB-GOLPH3 as bait.

Chains of the proteins cited; added tags and fusions are not shown.
UniProt Q9H4A6: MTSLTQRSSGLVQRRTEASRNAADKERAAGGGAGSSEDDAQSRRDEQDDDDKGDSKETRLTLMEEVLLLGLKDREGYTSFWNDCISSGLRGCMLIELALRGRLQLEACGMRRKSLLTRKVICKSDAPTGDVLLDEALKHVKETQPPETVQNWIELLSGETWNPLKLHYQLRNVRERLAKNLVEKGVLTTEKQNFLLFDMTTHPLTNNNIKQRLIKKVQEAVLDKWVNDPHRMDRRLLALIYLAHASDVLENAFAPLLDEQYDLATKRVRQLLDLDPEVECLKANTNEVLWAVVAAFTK
UniProt Q07065: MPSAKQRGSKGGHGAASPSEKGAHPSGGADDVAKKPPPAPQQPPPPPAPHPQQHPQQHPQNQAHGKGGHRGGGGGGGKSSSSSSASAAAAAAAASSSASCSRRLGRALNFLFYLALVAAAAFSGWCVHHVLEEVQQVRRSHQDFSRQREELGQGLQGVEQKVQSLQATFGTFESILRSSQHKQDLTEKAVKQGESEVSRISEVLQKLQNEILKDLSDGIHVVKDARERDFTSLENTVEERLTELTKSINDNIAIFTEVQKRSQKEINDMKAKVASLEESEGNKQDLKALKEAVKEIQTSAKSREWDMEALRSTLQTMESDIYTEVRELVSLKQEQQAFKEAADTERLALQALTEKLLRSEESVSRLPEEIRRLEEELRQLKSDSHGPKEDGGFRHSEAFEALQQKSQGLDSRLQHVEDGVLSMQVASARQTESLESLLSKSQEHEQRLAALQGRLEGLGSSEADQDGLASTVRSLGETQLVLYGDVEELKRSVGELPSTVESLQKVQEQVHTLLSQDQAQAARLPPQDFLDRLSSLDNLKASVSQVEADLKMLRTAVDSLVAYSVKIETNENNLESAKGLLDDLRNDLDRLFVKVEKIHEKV

Results are given in words; binding and its absence hold for the method and conditions named. In cells and extracts the contact can be indirect. These calls come from enrichment with a bait or labelling near it, and not all partners need be listed.

On to “cytoskeleton-associated protein 4 (CKAP4), endogenous (from UniProt Q07065 1-602)”, for which the binding result is “binds”.
